Reference: the supplement of paper PMC10849652
This is one part of the list.

Sequences of proteins named here, by UniProt entry; tags and fusion partners are left off. A change or cut given only in a name is not applied to a line headed by its entry.
UniProt Q9Y2K9: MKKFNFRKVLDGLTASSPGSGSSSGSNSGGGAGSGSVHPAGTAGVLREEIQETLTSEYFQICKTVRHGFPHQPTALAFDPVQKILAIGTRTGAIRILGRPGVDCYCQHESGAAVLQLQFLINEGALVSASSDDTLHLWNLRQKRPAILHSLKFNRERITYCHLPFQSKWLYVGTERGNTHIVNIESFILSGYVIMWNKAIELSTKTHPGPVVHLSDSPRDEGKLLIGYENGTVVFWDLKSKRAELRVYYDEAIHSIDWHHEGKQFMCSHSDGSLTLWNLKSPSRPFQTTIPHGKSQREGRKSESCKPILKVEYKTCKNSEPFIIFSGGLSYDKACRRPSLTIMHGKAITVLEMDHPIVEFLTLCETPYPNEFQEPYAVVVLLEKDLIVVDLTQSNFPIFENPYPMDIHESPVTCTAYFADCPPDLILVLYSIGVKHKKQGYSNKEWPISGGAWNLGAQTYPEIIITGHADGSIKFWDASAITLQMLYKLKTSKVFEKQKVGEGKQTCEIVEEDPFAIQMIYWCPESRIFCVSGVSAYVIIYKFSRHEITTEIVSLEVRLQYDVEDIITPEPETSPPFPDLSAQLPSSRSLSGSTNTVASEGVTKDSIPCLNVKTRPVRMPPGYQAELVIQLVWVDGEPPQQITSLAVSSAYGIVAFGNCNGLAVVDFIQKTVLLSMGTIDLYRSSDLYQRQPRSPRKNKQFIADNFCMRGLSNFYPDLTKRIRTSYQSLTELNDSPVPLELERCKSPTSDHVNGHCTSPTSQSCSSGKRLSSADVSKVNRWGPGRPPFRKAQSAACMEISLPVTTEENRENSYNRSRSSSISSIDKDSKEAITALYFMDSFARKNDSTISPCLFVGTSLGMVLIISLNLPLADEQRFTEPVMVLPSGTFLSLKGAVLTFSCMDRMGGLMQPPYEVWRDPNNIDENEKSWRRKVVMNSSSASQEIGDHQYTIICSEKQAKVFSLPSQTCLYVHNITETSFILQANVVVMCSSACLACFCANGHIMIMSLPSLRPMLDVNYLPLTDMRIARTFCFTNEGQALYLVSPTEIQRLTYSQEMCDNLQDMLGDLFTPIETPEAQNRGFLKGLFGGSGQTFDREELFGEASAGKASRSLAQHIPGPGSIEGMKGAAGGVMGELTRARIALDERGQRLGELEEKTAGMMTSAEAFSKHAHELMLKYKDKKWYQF
UniProt Q9NRP7: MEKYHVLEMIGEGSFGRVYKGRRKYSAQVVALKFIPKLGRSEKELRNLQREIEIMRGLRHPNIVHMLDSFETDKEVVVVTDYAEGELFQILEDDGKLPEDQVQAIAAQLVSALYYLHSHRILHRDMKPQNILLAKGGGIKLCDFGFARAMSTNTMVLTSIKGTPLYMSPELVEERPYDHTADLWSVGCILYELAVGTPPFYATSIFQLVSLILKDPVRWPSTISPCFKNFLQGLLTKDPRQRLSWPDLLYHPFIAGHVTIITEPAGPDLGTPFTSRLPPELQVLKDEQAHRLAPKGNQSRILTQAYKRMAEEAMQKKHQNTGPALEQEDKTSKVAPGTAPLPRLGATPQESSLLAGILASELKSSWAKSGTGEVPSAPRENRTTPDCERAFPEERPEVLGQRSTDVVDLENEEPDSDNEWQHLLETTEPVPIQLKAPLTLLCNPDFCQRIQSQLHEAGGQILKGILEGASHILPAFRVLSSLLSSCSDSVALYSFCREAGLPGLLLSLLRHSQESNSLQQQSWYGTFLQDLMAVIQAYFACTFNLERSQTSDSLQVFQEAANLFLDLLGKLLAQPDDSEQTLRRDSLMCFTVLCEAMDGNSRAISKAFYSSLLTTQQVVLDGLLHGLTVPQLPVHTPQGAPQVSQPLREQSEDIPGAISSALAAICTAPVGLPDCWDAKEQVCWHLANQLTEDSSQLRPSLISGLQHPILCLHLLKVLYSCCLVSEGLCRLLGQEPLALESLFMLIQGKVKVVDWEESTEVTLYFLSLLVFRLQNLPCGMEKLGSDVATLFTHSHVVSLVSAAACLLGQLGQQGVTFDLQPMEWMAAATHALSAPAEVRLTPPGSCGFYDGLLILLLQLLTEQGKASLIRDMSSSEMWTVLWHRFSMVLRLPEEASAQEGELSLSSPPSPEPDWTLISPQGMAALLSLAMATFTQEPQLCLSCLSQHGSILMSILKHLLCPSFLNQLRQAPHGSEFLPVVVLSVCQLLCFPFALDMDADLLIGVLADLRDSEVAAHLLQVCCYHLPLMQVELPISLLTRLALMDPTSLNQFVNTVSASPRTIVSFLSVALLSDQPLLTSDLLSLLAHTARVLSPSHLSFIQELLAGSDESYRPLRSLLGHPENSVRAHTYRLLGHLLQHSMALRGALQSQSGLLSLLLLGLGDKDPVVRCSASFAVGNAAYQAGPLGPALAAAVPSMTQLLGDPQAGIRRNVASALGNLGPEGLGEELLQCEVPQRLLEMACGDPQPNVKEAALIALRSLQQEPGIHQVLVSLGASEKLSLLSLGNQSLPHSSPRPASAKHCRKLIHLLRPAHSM
UniProt Q9BXI6: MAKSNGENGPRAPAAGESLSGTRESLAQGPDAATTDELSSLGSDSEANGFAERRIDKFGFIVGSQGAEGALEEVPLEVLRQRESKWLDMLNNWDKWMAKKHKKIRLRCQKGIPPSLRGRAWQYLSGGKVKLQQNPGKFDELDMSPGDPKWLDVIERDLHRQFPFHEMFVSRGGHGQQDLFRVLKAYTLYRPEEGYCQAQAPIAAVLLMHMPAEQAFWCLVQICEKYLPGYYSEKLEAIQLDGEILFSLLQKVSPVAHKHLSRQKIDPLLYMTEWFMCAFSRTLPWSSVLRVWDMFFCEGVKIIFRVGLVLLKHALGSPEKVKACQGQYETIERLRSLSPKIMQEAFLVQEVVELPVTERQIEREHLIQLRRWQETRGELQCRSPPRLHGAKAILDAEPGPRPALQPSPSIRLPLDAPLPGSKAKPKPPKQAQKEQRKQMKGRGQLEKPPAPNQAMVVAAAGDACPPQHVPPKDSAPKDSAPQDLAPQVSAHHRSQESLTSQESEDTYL
UniProt Q8WUJ0: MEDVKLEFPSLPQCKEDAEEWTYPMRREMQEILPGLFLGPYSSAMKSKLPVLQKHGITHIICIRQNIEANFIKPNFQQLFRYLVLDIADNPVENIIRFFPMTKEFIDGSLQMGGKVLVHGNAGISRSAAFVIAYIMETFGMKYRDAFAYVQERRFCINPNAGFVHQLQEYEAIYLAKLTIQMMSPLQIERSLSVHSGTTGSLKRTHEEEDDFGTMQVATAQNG
UniProt Q93075: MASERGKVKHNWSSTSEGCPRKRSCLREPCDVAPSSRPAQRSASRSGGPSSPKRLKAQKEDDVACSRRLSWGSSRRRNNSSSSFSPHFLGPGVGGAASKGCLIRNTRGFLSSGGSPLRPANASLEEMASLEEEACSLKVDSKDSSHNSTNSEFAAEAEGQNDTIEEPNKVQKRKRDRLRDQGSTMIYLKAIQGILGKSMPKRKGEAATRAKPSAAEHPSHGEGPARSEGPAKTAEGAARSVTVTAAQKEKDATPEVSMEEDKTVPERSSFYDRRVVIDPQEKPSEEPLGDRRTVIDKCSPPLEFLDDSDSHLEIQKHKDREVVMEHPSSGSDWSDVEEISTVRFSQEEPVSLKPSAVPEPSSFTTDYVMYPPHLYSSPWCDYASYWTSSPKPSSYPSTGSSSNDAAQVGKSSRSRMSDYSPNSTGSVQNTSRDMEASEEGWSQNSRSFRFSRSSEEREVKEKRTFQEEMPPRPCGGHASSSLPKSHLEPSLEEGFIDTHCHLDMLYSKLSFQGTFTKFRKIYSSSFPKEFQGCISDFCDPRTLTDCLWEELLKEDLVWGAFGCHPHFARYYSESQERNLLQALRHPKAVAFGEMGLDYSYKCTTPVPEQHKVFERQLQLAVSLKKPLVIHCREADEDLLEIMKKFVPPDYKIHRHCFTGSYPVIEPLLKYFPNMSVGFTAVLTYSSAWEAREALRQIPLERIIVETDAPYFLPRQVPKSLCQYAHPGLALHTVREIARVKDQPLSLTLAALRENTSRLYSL
UniProt Q6UWL2: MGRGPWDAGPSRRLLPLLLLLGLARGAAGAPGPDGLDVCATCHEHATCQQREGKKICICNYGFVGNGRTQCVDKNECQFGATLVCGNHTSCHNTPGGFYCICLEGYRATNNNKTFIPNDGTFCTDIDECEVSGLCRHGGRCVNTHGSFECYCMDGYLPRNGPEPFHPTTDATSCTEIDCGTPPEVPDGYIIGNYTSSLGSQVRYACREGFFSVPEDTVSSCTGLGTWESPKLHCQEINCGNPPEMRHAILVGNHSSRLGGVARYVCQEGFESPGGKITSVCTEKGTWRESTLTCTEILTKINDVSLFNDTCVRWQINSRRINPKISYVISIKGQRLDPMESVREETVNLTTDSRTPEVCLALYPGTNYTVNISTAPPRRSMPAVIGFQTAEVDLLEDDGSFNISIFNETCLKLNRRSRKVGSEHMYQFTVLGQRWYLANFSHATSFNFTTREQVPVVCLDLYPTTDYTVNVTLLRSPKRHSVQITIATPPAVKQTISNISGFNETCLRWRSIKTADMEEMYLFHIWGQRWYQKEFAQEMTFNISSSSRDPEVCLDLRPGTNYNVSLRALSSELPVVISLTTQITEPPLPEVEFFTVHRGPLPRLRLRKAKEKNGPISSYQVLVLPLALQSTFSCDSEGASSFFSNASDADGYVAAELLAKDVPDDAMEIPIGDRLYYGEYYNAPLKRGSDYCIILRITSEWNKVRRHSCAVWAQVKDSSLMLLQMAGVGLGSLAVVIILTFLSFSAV
UniProt Q8N2H4: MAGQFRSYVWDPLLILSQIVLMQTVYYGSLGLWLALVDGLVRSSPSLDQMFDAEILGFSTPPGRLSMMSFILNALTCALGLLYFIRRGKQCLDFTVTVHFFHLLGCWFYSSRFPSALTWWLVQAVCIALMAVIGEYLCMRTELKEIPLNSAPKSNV
UniProt Q16514: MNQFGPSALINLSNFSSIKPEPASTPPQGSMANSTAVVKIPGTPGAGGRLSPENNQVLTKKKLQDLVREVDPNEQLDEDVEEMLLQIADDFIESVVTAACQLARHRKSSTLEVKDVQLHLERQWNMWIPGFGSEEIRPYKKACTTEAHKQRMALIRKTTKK
UniProt Q9UL54: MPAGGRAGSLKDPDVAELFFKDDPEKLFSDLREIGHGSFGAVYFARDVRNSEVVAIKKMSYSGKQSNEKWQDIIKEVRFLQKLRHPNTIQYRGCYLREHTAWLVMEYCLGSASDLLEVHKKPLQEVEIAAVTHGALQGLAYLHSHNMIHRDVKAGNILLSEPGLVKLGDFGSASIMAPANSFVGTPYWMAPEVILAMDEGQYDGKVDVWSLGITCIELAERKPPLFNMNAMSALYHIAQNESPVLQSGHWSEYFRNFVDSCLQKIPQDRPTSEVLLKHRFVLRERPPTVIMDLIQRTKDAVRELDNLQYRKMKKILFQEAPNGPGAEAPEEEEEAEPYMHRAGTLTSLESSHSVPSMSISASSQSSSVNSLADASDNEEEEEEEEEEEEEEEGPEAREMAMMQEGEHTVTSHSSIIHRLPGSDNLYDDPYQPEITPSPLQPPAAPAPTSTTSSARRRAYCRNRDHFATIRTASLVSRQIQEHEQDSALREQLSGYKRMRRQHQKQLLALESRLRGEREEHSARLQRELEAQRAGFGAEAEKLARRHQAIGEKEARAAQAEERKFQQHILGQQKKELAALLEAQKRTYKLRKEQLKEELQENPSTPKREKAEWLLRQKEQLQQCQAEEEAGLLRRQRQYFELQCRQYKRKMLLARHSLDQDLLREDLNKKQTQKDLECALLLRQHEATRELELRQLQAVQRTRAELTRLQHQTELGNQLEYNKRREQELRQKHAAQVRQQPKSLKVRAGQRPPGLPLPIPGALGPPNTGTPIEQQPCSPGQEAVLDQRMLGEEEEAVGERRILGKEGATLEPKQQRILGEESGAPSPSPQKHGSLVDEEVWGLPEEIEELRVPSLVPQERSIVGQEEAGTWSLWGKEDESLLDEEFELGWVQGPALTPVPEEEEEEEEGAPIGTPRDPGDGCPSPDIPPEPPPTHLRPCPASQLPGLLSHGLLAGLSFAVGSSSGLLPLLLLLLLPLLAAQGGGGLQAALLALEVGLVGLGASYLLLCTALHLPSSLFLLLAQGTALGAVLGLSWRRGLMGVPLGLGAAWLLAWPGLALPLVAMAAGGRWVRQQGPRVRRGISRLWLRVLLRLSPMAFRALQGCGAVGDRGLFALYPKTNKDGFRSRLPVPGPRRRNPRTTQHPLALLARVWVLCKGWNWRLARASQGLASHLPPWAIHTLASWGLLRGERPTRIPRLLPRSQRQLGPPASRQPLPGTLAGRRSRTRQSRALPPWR
UniProt Q01995: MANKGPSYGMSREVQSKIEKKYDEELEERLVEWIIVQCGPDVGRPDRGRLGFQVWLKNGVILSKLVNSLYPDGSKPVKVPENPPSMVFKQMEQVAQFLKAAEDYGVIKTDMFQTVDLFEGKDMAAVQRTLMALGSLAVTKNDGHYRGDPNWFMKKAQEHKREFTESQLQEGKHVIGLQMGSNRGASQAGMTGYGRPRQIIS

Compound: CCn1cc(-c2ccnc3[nH]c(-c4cccc(CN(C)C)c4)cc23)c(-c2ccc(NC(=O)N(C)C)cc2)n1
Experiment: log2 fold change, soluble protein after heating vs DMSO (PISA); higher = thermal stabilisation; K562 cells, 10 uM, 30 min; active = over 0.2 and 3.5 SD of the protein, either way, in both replicates (recomputed)
Procedure, shortened: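 K562 cells at 2×10^6 cells/mL were treated with 10 μM compound for 30 min. Aliquots were heated for 3 min across 48°C-58°C, pooled, and extracted in PBS with 0.5% NP-40 at 4°C; soluble protein was the supernatant after 21,000xg for 90 min. Soluble protein was quantified by TMTpro 16plex LC-MS/MS with channel sums equalised, and reported as log2 fold change in thermal stability against DMSO controls, with values from duplicates.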

log2 fold change, inactive:
STXBP5L (UniProt Q9Y2K9) -0.138
SYP (UniProt P08247) -0.025
STK36 (UniProt Q9NRP7) 0.168
TBC1D10A (UniProt Q9BXI6) 0.135
TAF5 (UniProt Q15542) -0.242
STRN3 isoform 2 (UniProt Q13033) 0.035
STYX (UniProt Q8WUJ0) -0.281
TATDN2 (UniProt Q93075) -0.071
SUSD1 isoform 2 (UniProt Q6UWL2) 0.038
SYS1 (UniProt Q8N2H4) -0.068
STON2 isoform 3 (UniProt Q8WXE9) -0.064
TAF12 (UniProt Q16514) -0.002
TAOK2 (UniProt Q9UL54) -0.076
SWI5 (UniProt Q1ZZU3) 0.029
TAGLN (UniProt Q01995) 0.358
SULT1E1 (UniProt P49888) -0.227

No new results follow: an excerpt of the list.
log2 fold change, inactive:
STRN3 isoform 2 (UniProt Q13033) 0.035
STYX (UniProt Q8WUJ0) -0.281
